Results deposited as PubChem BioAssay AID1259425 (University of Nebraska Medical Center, 2018)
Here is an unselected part of about 14,000 deposited reagents. Reagents against one gene are numbered here. Further read-outs or replicates are left out here. Not stated in the record: the time to read-out.

Screen: 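Compare each knockdown with KSR1 silencing using changes in marker transcripts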 (primary screen)
System: HCT116 human colon cancer cells
Reagent: siRNA pool against human genes, 50 nM siRNA
Measured: 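After 50 nM siRNA pool, branched-DNA assay measures six marker transcripts per well, minus blank, normalised to the geometric mean of two housekeeping transcripts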
Reading the numbers: BNIP3L mRNA: higher = more BNIP3L transcript after knockdown; NDRG1 mRNA: higher = more NDRG1 transcript after knockdown; BNIP3 mRNA: higher = more BNIP3 transcript after knockdown

| target gene | pool no. | BNIP3L mRNA, set 1 | NDRG1 mRNA, set 1 | BNIP3 mRNA, set 1 |
| --- | --- | --- | --- | --- |
| KATNAL1 | 1 | 0.146 | 0.266 | 0.298 |
| DDX60 | 1 | 0.14 | 0.18 | 0.334 |
| SPAG7 | 1 | 0.171 | 0.422 | 0.581 |
| KAT7 | 1 | 0.087 | 0.146 | 0.211 |
| CHRM4 | 1 | 0.0452 | 0.0678 | 0.224 |
| ENTPD2 | 1 | 0.0723 | 0.307 | 0.319 |
| CCL14 | 1 | 0.0551 | 0.185 | 0.238 |
| EGR1 | 1 | 0.0726 | 0.0721 | 0.255 |
| PCBP2 | 1 | 0.0772 | 0.278 | 0.286 |
| TMEM123 | 1 | 0.0698 | 0.127 | 0.39 |
| ESF1 | 1 | 0.19 | 0.149 | 0.307 |
| PAX4 | 1 | 0.0735 | 0.0667 | 0.242 |
| DLEU1 | 1 | 0.186 | 0.484 | 0.518 |
| DVL3 | 1 | 0.079 | 0.356 | 0.255 |
| RGS5 | 1 | 0.17 | 0.131 | 0.391 |
| RGS6 | 1 | 0.0979 | 0.487 | 0.29 |
| NUSAP1 | 1 | 0.143 | 0.411 | 0.333 |
| LETM1 | 1 | 0.0866 | 0.209 | 0.32 |
| PRPH2 | 1 | 0.197 | 0.696 | 0.246 |
| CHMP4A | 1 | 0.0553 | 0.114 | 0.249 |
| BCAT2 | 1 | 0.0441 | 0.0631 | 0.148 |
| ISCA1 | 1 | 0.109 | 0.378 | 0.441 |
| NIPA2 | 1 | 0.0436 | 0.106 | 0.268 |
| TOMM22 | 1 | 0.301 | 0.123 | 0.314 |
| CFAP69 | 1 | 0.124 | 0.109 | 0.312 |
| MTFR1L | 1 | 0.188 | 0.313 | 0.514 |
| THSD4 | 1 | 0.204 | 0.253 | 0.4 |
| HES7 | 1 | 0.126 | 0.243 | 0.244 |
| LGSN | 1 | 0.06 | 0.195 | 0.24 |
| LY6E | 1 | 0.0928 | 0.391 | 0.333 |
| DELE1 | 1 | 0.0805 | 0.265 | 0.35 |
| CYP7B1 | 1 | 0.0607 | 0.0405 | 0.226 |
| RABGEF1 | 1 | 0.104 | 0.166 | 0.22 |
| PSMD10 | 1 | 0.0769 | 0.62 | 0.265 |
| ATP2A2 | 1 | 0.127 | 0.287 | 0.217 |
| ANKRD55 | 1 | 0.124 | 0.298 | 0.361 |
| IVL | 1 | 0.107 | 0.386 | 0.3 |
| HCAR3 | 1 | 0.197 | 0.205 | 0.398 |
| MEOX2 | 1 | 0.11 | 0.191 | 0.305 |
| RAB8B | 1 | 0.0812 | 0.0869 | 0.273 |
| DEGS1 | 1 | 0.0583 | 0.378 | 0.282 |
| CDC42EP2 | 1 | 0.0908 | 0.208 | 0.249 |
| GJB2 | 1 | 0.0743 | 0.597 | 0.223 |
| PALM | 1 | 0.177 | 0.176 | 0.264 |
| CAND1 | 1 | 0.0828 | 0.166 | 0.321 |
| IGF2BP3 | 1 | 0.229 | 0.0653 | 0.379 |
| SOX8 | 1 | 0.0756 | 0.234 | 0.354 |
| LUC7L3 | 1 | 0.205 | 0.497 | 0.399 |
| LUC7L3 | 2 | 0.0911 | 0.152 | 0.228 |
| AHCYL2 | 1 | 0.0878 | 0.181 | 0.292 |
